These results are taken from PMC7819943, “Rice protein-binding microarrays: a tool to detect cis-acting elements near promoter regions in rice”.

By UniProt entry, the sequences of proteins in these tests, tags left out.
UniProt Q0JBA9, entry or part of it: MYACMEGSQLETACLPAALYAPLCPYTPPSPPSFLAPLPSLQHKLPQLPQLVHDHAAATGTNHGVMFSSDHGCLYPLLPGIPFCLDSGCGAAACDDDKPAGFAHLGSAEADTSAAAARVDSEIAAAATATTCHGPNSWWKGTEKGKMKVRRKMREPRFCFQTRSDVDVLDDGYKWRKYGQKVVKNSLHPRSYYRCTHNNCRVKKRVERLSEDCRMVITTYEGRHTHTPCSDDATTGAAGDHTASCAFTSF

This is one part of the list.

The target of this experiment is OsWRKY34 (Oryza sativa, UniProt Q0JBA9 1-250). Put plainly: protein-binding microarray (RPBM); PBS, 2% BSA, 51.3 ng/ul salmon testes DNA, 50 uM zinc acetate, 200 nM TF, 25 C, 1 h; high values mean tight binding. The note with it: protein: recombinant; tags: N-terminal polyhistidine and DsRed monomer fusion (pET32a); label: CyDye5-dUTP incorporated in the synthesized complementary strand; 3' TTTTT single-stranded linker to array surface; dsDNA, one strand shown. A digest of the protocol: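 For the binding signal, per-feature fluorescence intensity was read in arbitrary units on an Axon 4000B scanner. Before scanning, a 2% BSA-blocked custom Agilent array made double-stranded with Cy5-dUTP was washed after 1 h at 25 °C with 200 nM protein and 50 µM zinc acetate. The proteins were Ni–NTA-purified transcription factors with N-terminal polyhistidine and DsRed fusions, expressed in E. coli BL21-CodonPlus.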
“TTGACCCAAGAACGGAGGAGGGATAGGGCGGGCGGCGATGCGGAGTCACCTAGTGCAG”: the binding signal is 8080 fluorescence intensity (a.u.).

On to “AGCTGCTAGTAAAAACCGGGGAGTTGGTGTGGGTGGGATTCGGAGTCACCTAGTGCAG”, for which the binding signal was 11200 fluorescence intensity (a.u.).

Consider “CCTTCATATTCGGCCAATGCCTTCTATATATGTTCTAGCTCGGAGTCACCTAGTGCAG”, for which the binding signal is 9760 fluorescence intensity (a.u.).

Regarding “TAAATTGAGGGATGACATATATCTTGTTTTACGGTTGGGGCGGAGTCACCTAGTGCAG”, the binding signal was 8290 fluorescence intensity (a.u.).

Consider “AGCCTCAGATCGCTTGCCAGCCATCTATCCCATTCACTGGCGGAGTCACCTAGTGCAG”, for which the binding signal is 8130 fluorescence intensity (a.u.).

In the case of “GATCAATATGTAACATATCACTCCGCAAACATGTAAGTTCCGGAGTCACCTAGTGCAG”, the binding signal is 8030 fluorescence intensity (a.u.).

As to “ATGTAGGGGTTCCTGCTGCTGCTGTTCTGCCCATTCAACACGGAGTCACCTAGTGCAG”, the binding signal was 8880 fluorescence intensity (a.u.).

With “CAGCATTTGTGATTGGGTAGTATGGGTTGCTCGATCTTTCCGGAGTCACCTAGTGCAG”, the binding signal was 12300 fluorescence intensity (a.u.).

Regarding “CAACTCCCTGCCTCGCTGCTGCCTCGCACAGTCGCGTTCCCGGAGTCACCTAGTGCAG”, the binding signal was 8870 fluorescence intensity (a.u.).

For the sequence “GCACCAACCGCGCCATGTGCGGGGCGGGGCGGCCGTGCTTCGGAGTCACCTAGTGCAG”, the binding signal is 10500 fluorescence intensity (a.u.).

Consider “GTCAAACTTTGTATACGGATTCTCACGACTGTACTTATTTCGGAGTCACCTAGTGCAG”, for which the binding signal was 8380 fluorescence intensity (a.u.).

On to “GTGGGTATATTTGGTTGATCACATCTGCAGCCATCAAAGACGGAGTCACCTAGTGCAG”, for which the binding signal was 9400 fluorescence intensity (a.u.).

As to “AACTCTATTTCTCCTCTATCTCTATCTATCTATCTATCTACGGAGTCACCTAGTGCAG”, the binding signal was 12200 fluorescence intensity (a.u.).

As for “TGCACAGGTCAGTAACTTAATTCGTTTTTATTTTTTTATACGGAGTCACCTAGTGCAG”, the binding signal is 8870 fluorescence intensity (a.u.).

Consider “ATAATGAAATTTCATAGGGGAGGGGCTGGGCTTTATAGGGCGGAGTCACCTAGTGCAG”, for which the binding signal was 13500 fluorescence intensity (a.u.).

As for “CTGTGATCCAAATAAACCTTAAATGTTATACTACTTCTGTCGGAGTCACCTAGTGCAG”, the binding signal was 8320 fluorescence intensity (a.u.).

Take “GGAGGGGACGACGATGGTGGGGTGGGTGGTGTCCGGGGTGCGGAGTCACCTAGTGCAG”: the binding signal is 19100 fluorescence intensity (a.u.).

Regarding “GAATTCTGTTACTAATTCTGTTCCGATTTCCACTCGAGCACGGAGTCACCTAGTGCAG”, the binding signal was 8200 fluorescence intensity (a.u.).

As for “CTAAATGTTTGACGCCGTTGACTTTTTAAATATGTTTGACCGGAGTCACCTAGTGCAG”, the binding signal is 32300 fluorescence intensity (a.u.).

As for “GTGTGGAGGTGGTGGGGAGTGTGAGGAGAGGGAGGGGATGCGGAGTCACCTAGTGCAG”, the binding signal is 18000 fluorescence intensity (a.u.).

For the sequence “CTCTCGCGCCGGAGCACAGCTATAGCTGATTTCTTTAATTCGGAGTCACCTAGTGCAG”, the binding signal was 9580 fluorescence intensity (a.u.).

Regarding “ATACACACATCACATCTTGAAGTCCGTGCTGCAGATCTGCCGGAGTCACCTAGTGCAG”, the binding signal is 9620 fluorescence intensity (a.u.).

As for “CTTGGTGGTTCTTTTCTTCTTCTAGATTTATCCCCATTTTCGGAGTCACCTAGTGCAG”, the binding signal is 16700 fluorescence intensity (a.u.).

In the case of “TGGCCTGCTGCTCTTCTCTTTTATCTTTTATCTCTTTAAACGGAGTCACCTAGTGCAG”, the binding signal was 8370 fluorescence intensity (a.u.).

On to “AGAACACAAGCATCTTCTTTTGTGTCATTTGCTACTGACACGGAGTCACCTAGTGCAG”, for which the binding signal is 11500 fluorescence intensity (a.u.).

Take “TATATCATTATCTTGTGCTTGCGAGCGTGTTCCCTGCAACCGGAGTCACCTAGTGCAG”: the binding signal was 8810 fluorescence intensity (a.u.).

As for “CCCACCCGCAACCCGCGCCGCCGCCGCCGCCATCCGCCTCCGGAGTCACCTAGTGCAG”, the binding signal is 8650 fluorescence intensity (a.u.).

For “TCGCCTGACCTGATCGCCGTGAAGTTCCATCCCGATCGACCGGAGTCACCTAGTGCAG”, the binding signal is 9780 fluorescence intensity (a.u.).

Turning to “ACGGTTTGTGTGAGTTTAGGGGTAAATATTTCTGCTTTTGCGGAGTCACCTAGTGCAG”, the binding signal was 8320 fluorescence intensity (a.u.).

Regarding “GTCCCGATTGTCTTGTAAATTATGCTACTTGGCCATGAAACGGAGTCACCTAGTGCAG”, the binding signal is 10200 fluorescence intensity (a.u.).

“GTTTCTATCCGATCACCTTCACCCTCCGTCTCCAGTAGTACGGAGTCACCTAGTGCAG”: the binding signal is 8840 fluorescence intensity (a.u.).

With “CGTCACTTGAAATCTACCCCGGTATTTTTCTTTTATTTTTCGGAGTCACCTAGTGCAG”, the binding signal was 9380 fluorescence intensity (a.u.).

Consider “AATTATCTTGGTGTTGGTGCATAATAAACATATATAATGACGGAGTCACCTAGTGCAG”, for which the binding signal was 8360 fluorescence intensity (a.u.).

As to “CCACCTCCGGCGAGCTCCTCACCCACGCAACCATGGTGCTCGGAGTCACCTAGTGCAG”, the binding signal is 8580 fluorescence intensity (a.u.).

For the sequence “TAACAGCGCCGACCCCACGACCACCACCGCCGCCGGCATGCGGAGTCACCTAGTGCAG”, the binding signal is 8300 fluorescence intensity (a.u.).

“TCCGAGGCTCTGACTTCCTAGTTCCCACTTCCGAGCAAACCGGAGTCACCTAGTGCAG”: the binding signal is 10500 fluorescence intensity (a.u.).

Turning to “CGTCGTATTCGGCGGCGGCGGGGAAGCAGGTGGGGAAACGCGGAGTCACCTAGTGCAG”, the binding signal is 13100 fluorescence intensity (a.u.).

“CTCTCTCATCTGATTCTTGCGTTTTTCCTGTGGTCCAATCCGGAGTCACCTAGTGCAG”: the binding signal is 12000 fluorescence intensity (a.u.).

Turning to “CGAACTTCACTCTACCTCTCTAGTTTTCTTTTTTATCACTCGGAGTCACCTAGTGCAG”, the binding signal was 12900 fluorescence intensity (a.u.).

As for “TATATATACCGCTTCCCGCCCCGCACCACAACCCAACTCACGGAGTCACCTAGTGCAG”, the binding signal is 8320 fluorescence intensity (a.u.).

Consider “GGGCATGTCTTTTTAGCTAATGGATGGTGGATTATAATGGCGGAGTCACCTAGTGCAG”, for which the binding signal is 9510 fluorescence intensity (a.u.).

In the case of “GCAGCACACTAATCGATCACCGCACTATACACAATACGACCGGAGTCACCTAGTGCAG”, the binding signal was 10000 fluorescence intensity (a.u.).

“ATCCACCCGCGGCCGCCGCCGACGCCGCCATCGATGCCGGCGGAGTCACCTAGTGCAG”: the binding signal was 8300 fluorescence intensity (a.u.).

For the sequence “ATGGTGTGTGATTATTCAATCCATTGTTTTTTACTTTGCGCGGAGTCACCTAGTGCAG”, the binding signal is 9570 fluorescence intensity (a.u.).

For the sequence “ATATCCAACGTTTGACCGTTTGTTTTATTTGAAATTTTTTCGGAGTCACCTAGTGCAG”, the binding signal was 9460 fluorescence intensity (a.u.).

Turning to “TCACTGGAAGCTCTCTCACTGACCATCTTTTTTTTTCCTTCGGAGTCACCTAGTGCAG”, the binding signal is 10600 fluorescence intensity (a.u.).

As to “CTCGCTGTTCTTCTCTCTTATCTTTTATCTCTTTAAAATACGGAGTCACCTAGTGCAG”, the binding signal was 15000 fluorescence intensity (a.u.).

As to “CTATCCGTCTCTCCTAATTTTAGTCAGTTTTCCACGCGTTCGGAGTCACCTAGTGCAG”, the binding signal was 10000 fluorescence intensity (a.u.).

With “GTGGTTTGTGGGTGTTTGGATCGCATGCATTTGGTGTGAGCGGAGTCACCTAGTGCAG”, the binding signal is 9240 fluorescence intensity (a.u.).

Consider “ATCCACTAATTAGGCAATTTCCCGCTGTCAAGTATGCTACCGGAGTCACCTAGTGCAG”, for which the binding signal is 8690 fluorescence intensity (a.u.).

For “TCCTCTTCCACCAACACCTCCGGCGCCGCCATCGTCCACCCGGAGTCACCTAGTGCAG”, the binding signal is 9480 fluorescence intensity (a.u.).

For the sequence “AAGGACCCAGCTGTTCGCCACGTGTGCGTGTTGACTTCCACGGAGTCACCTAGTGCAG”, the binding signal was 9780 fluorescence intensity (a.u.).

Regarding “TGTGTTGCAGCTGGCTATAAATTTATAGACCGTTGTTCATCGGAGTCACCTAGTGCAG”, the binding signal was 8240 fluorescence intensity (a.u.).

Consider “CGCCTTCCATTGACTTCAACGGATTCCTCATTCCTGTGACCGGAGTCACCTAGTGCAG”, for which the binding signal was 8050 fluorescence intensity (a.u.).
